# Source: the supplement of paper PMC6414424
# Counter-ions that a name gives are not always drawn. ± gives the standard deviation of the averaged measurements. Some of the results follow.
# Tested on: APPdp1-6 iPSC-derived neurons
# Assay: pThr231Tau/total Tau ratio Z-score vs DMSO vehicle wells; higher = more pThr231Tau relative to total Tau
# Conditions: 5 µM; treatment time 5 days
row,Structure (SMILES),pThr231Tau/total Tau ratio Z-score
1,CCOC(=O)C1=C(COCCN)NC(C)=C(C(=O)OC)C1c1ccccc1Cl (stereo unspecified) [Prestw-1219],0.173 ± 0.19
2,"CC(C)CCCCC(=O)N[C@@H](CCN)C(=O)N[C@@H](CN[C@@H](CCN)C(=O)N[C@H]1CCNC(=O)[C@H]([C@@H](C)O)NC(=O)[C@H](CCN)NC(=O)[C@H](CCN)NC(=O)[C@H](CC(C)C)NC(=O)[C@@H](CC(C)C)NC(=O)[C@H](CCN)NC1=O)[C@@H](C)O.CCC(C)CCCCC(=O)N[C@@H](CCN)C(=O)N[C@@H](CN[C@@H](CCN)C(=O)N[C@H]1CCNC(=O)[C@H]([C@@H](C)O)NC(=O)[C@H](CCN)NC(=O)[C@H](CCN)NC(=O)[C@H](CC(C)C)NC(=O)[C@@H](CC(C)C)NC(=O)[C@H](CCN)NC1=O)[C@@H](C)O (stereo partly specified) [COLISTIN SULFATE, antibacterial]",1.77 ± 0.34
3,CC(C)CCCCC(=O)N[C@@H](CCN)C(=O)N[C@@H](CN[C@@H](CCN)C(=O)N[C@H]1CCNC(=O)[C@H]([C@@H](C)O)NC(=O)[C@H](CCN)NC(=O)[C@H](CCN)NC(=O)[C@H](CC(C)C)NC(=O)[C@@H](CC(C)C)NC(=O)[C@H](CCN)NC1=O)[C@@H](C)O.CCC(C)CCCCC(=O)N[C@@H](CCN)C(=O)N[C@@H](CN[C@@H](CCN)C(=O)N[C@H]1CCNC(=O)[C@H]([C@@H](C)O)NC(=O)[C@H](CCN)NC(=O)[C@H](CCN)NC(=O)[C@H](CC(C)C)NC(=O)[C@@H](CC(C)C)NC(=O)[C@H](CCN)NC1=O)[C@@H](C)O (stereo partly specified) [Prestw-486],0.77 ± 0.38
4,CN1[C@@H]2CC[C@H]1C[C@@H](OC(=O)c1c[nH]c3ccccc13)C2 [Prestw-461],-0.53 ± 0.97
5,COc1ccccc1OCC(O)CO (stereo unspecified) [Prestw-776],0.0745 ± 0.53
6,NC[C@@H]1O[C@H](O[C@H]2[C@@H](O)[C@H](O[C@@H]3[C@@H](O)[C@H](N)C[C@H](N)[C@H]3O[C@H]3O[C@H](CO)[C@@H](O)[C@H](O)[C@H]3N)O[C@@H]2CO)[C@H](N)[C@@H](O)[C@@H]1O [Prestw-867],0.109 ± 0.19
7,"CC[C@]1(O)C[C@H]2CN(CCc3c([nH]c4ccccc34)[C@@](C(=O)OC)(c3cc4c(cc3OC)N(C=O)[C@H]3[C@@](O)(C(=O)OC)[C@H](OC(C)=O)[C@]5(CC)C=CCN6CC[C@]43[C@@H]65)C2)C1 [VINCRISTINE SULFATE, antineoplastic]",-5.1 ± 1.1
8,CC(=O)[C@H]1CC[C@H]2[C@@H]3C=CC4=CC(=O)CC[C@@]4(C)[C@@H]3CC[C@]12C [Prestw-671],0.502 ± 0.65
9,Cc1cc(=O)[nH]c(=S)[nH]1 [METHYLTHIOURACIL    Therap cat:  Antithyroid agent],0.11 ± 0.22
10,CN(C)CCOC(C)(c1ccccc1)c1ccccn1 (stereo unspecified) [Prestw-27],1.51 ± 2.1
11,CC(=O)c1ccc2c(c1)N(CCCN(C)C)c1ccccc1S2 [Prestw-576],0.828 ± 2.7
12,CC(C)(C#N)c1cc(Cn2cncn2)cc(C(C)(C)C#N)c1 [Prestw-1222],1.44 ± 2
13,Oc1c(I)cc(Cl)c2cccnc12 [Prestw-886],-0.387 ± 0.016
14,Nc1ccn([C@H]2CC[C@@H](CO)O2)c(=O)n1 [Prestw-1037],-0.0393 ± 0.056
15,CN(C(=O)C(Cl)Cl)c1ccc(OC(=O)c2ccco2)cc1 [Prestw-903],-0.358 ± 0.28
16,COc1ccc(OC)c(C(O)CNC(=O)CN)c1 (stereo unspecified) [Prestw-191],-0.591 ± 0.47

# Shown with bars between the fields: part of the list above.
row | Structure (SMILES) | pThr231Tau/total Tau ratio Z-score
7 | CC[C@]1(O)C[C@H]2CN(CCc3c([nH]c4ccccc34)[C@@](C(=O)OC)(c3cc4c(cc3OC)N(C=O)[C@H]3[C@@](O)(C(=O)OC)[C@H](OC(C)=O)[C@]5(CC)C=CCN6CC[C@]43[C@@H]65)C2)C1 [VINCRISTINE SULFATE, antineoplastic] | -5.1 ± 1.1
9 | Cc1cc(=O)[nH]c(=S)[nH]1 [METHYLTHIOURACIL    Therap cat:  Antithyroid agent] | 0.11 ± 0.22

# Further entries follow.

row,Structure (SMILES),pThr231Tau/total Tau ratio Z-score
1,CN(C)CCN1C(=O)c2ccccc2N(C)c2ccccc21 [Prestw-1393],-0.901 ± 0.44
2,CN1CCN(CCCN2c3ccccc3Sc3ccc(C(F)(F)F)cc32)CC1 [Prestw-313],-1.59 ± 0.18
3,CC[C@H](C)[C@H](N)C1=N[C@H](C(=O)N[C@@H](CC(C)C)C(=O)N[C@H](CCC(=O)O)C(=O)N[C@H](C(=O)N[C@H]2CCCCNC(=O)[C@H](CC(N)=O)NC(=O)[C@@H](CC(=O)O)NC(=O)[C@H](Cc3cnc[nH]3)NC(=O)[C@@H](Cc3ccccc3)NC(=O)[C@H]([C@@H](C)CC)NC(=O)[C@@H](CCCN)NC2=O)[C@@H](C)CC)CS1 [Prestw-919],0.0119 ± 0.74
4,CC[C@H](C)[C@H](N)C1=N[C@H](C(=O)N[C@@H](CC(C)C)C(=O)N[C@H](CCC(=O)O)C(=O)N[C@H](C(=O)N[C@H]2CCCCNC(=O)[C@H](CC(N)=O)NC(=O)[C@@H](CC(=O)O)NC(=O)[C@H](Cc3cnc[nH]3)NC(=O)[C@@H](Cc3ccccc3)NC(=O)[C@H]([C@@H](C)CC)NC(=O)[C@@H](CCCN)NC2=O)[C@@H](C)CC)CS1,0.627 ± 1.2
5,CC(=O)NS(=O)(=O)c1ccc(NC(=O)c2ccccc2C(=O)O)cc1,1.66 ± 1.9
6,"COc1ccc2c(c1OC)C(=O)O[C@@H]2[C@H]1c2c(cc3c(c2OC)OCO3)CCN1C [NOSCAPINE HYDROCHLORIDE, antitussive]",0.607 ± 1.6
7,CC(=O)NCCCS(=O)(=O)O [Prestw-1502],1.57 ± 0.18
8,CCOC(=O)O[C@]1(C(=O)COC(=O)CC)CC[C@H]2[C@@H]3CCC4=CC(=O)C=C[C@]4(C)[C@H]3[C@@H](O)C[C@@]21C [Prestw-1044],1.81 ± 1.4
9,CC(C)(C)NCC(O)COc1cccc2c1CCC(=O)N2 (stereo unspecified) [Prestw-446],-0.939 ± 0.085
10,C[C@@H]1NC(=O)[C@@H](N)CNC(=O)[C@H](C2CCN=C(N)N2)NC(=O)/C(=C/NC(N)=O)NC(=O)[C@H](CNC(=O)CC(N)CCCN)NC1=O.NCCCC(N)CC(=O)NC[C@@H]1NC(=O)[C@H](CO)NC(=O)[C@@H](N)CNC(=O)[C@H](C2CCN=C(N)N2)NC(=O)/C(=C/NC(N)=O)NC1=O (stereo partly specified),0.835 ± 1
11,"OC[C@H]1O[C@H](O[C@]2(CCl)O[C@H](CCl)[C@@H](O)[C@@H]2O)[C@H](O)[C@@H](O)[C@H]1Cl [SUCRALOSE, sweetener]",0.761 ± 1.2
12,COc1ccc2c(c1)c(CC(=O)O)c(C)n2C(=O)c1ccc(Cl)cc1 [Prestw-272],-0.361 ± 0.84
13,Nc1nc2ccc(OC(F)(F)F)cc2s1 [Prestw-167],-0.843 ± 0.18
14,C(=C\c1ccccc1)/CN1CCN(C(c2ccccc2)c2ccccc2)CC1 [Prestw-278],-1.08 ± 0.75
15,O=C(C1CCCCC1)N1CC(=O)N2CCc3ccccc3C2C1 (stereo unspecified) [Prestw-260],0.0753 ± 1.3
